From patent US9987296B2, “Compositions including anthocyanin or anthocyanidin for the prevention or treatment of Articular cartilage-associated conditions” (priority 2008, dated 2018)
Some entries share one result that the patent states for a list of compounds. For part of these data: At least one structure is not confirmed: it was looked up by name or label, or the drawing left a doubt.

What was measured:
[1] = test system: Human articular chondrocytes; experiment: MTT assay; type: cell-based; details: human articular chondrocytes in culture, 96 hours
Method: (§1) Chondrocytes were isolated from non-arthritic regions of adult human articular cartilage (N=3 donors) and expanded in tissue culture flasks in DMEM supplemented with 10% calf serum.
The following compounds were provided by Chromadex, Inc. and tested from 1 uM to 500 uM:
Human articular chondrocytes were seeded in 96-well culture trays at a density of 5000 cells/well and incubated with the selected concentration of the anthocyanin for 4 days. At the end of the 4 day period, fresh MTT (3(4,5-Dimethylthiazol-2-yl)-2,5-diphenyltetrazolium bromide) was made in PBS and filter sterilized. MTT (25 ul per well) was added to the cell culture and incubated for 5 hours in the CO2 incubator at 37° C. Yellow MIT is reduced to purple formazan in living cells. The supernatant from each well was removed, and 200 Ill of DMSO was added. A multi-channel pipette was used to dissolve crystals. The microplate was placed back into the incubator at 37° C. for 5 min. Formazan levels in each well were read using a spectrophotometer at 550 nm wavelength.

[2] = test system: Human articular chondrocytes; experiment: Cell viability (calcein AM / ethidium homodimer staining); type: cell-based; details: human articular chondrocytes in culture, 96 hours
Excerpt: as §1
At higher concentrations, the color of the anthocyanin interfered with the spectrophotometer reading; therefore, cell viability was additionally measured with calcein staining as follows: Live and dead cells were simultaneously viewed in situ with a confocal microscope (LSM 510; Zeiss, Wetzlar, Germany), using a fluorescent double stain. Calcein AM (1 uM; Invitrogen, Carlsbad, Calif.), a fluorescein derivative that is metabolized by nonspecific esterase present in viable cells, was used to stain live cells. The use of 8 uM ethidium homodimer (Invitrogen), a nucleic acid stain that is excluded by intact cell membranes, enabled visualization of the nuclei of dead cells. After 96-hour exposure to the appropriate concentration of anthocyanins, chondrocytes were cultured in DMEM supplemented with Calcein AM and ethidium homodimer for 45 minutes. Live and dead cells were counted using an automated image analysis script written in Matlab (MathWorks, Natick, Mass.) to measure percentage cell viability.

Molecule	non-toxic concentration [1]	concentration inducing cell death / some toxicity [2] [µM]
Oc1ccc(-c2[o+]c3cc(O)cc(O)c3cc2O)cc1.[Cl-] [Pelargonidin Chloride]	up to 100 uM	
Delphinidin-3-O-Glucoside	up to 100 uM	≥ 200
